The chains are these.
B1: anti-Siglec-5 monoclonal antibody 8C3 (antibody, IgG1, V domains shown)
VH: QVQLQQSGGGLVKPGTSVKLSCKASGYIFTEYIIHWVKQRSGQGLEWIGWFYPGIISIKYNEKFKDKATLTADKSSSTVYMELSRLTSEDSAVYFCAGHEGYDGAMDYWGQGTSVTVSS
VL: DVLMTQTPLSLPVSLGDQASISCRCSQSIVHSNGNTYLEWYLQKPGQSPKLLIYRVSNRFSGVPDRFSGSGSGTDFTLKISRVEAEDLGVYYCFQGSHVPWTFGGGTKLEIK
B2: anti-Siglec-5 monoclonal antibody 2G5 (antibody, IgG1, V domains shown)
VH: EIQLQQSGPELVKPGASVKVSCKASGYSFTDYNMYWVKQSHGKSLEWIGYIDPYNGNTTYNQRFKGKATLTVDKSSSTAFMHLNSLTSEDAAVYYCATFYGFDGFAYWGQGSLVAVSA
VL: QAVVTQESALTTSPGETVTLTCRSSTGAVTTSNYANWVQEKPDHLFTGLIGTTNNRAPGVPARFSGSLIGDKAALTITGAQTEDEAIYFCALWYSNHLVFGGGTKLTVLG
B3: anti-Siglec-5 monoclonal antibody 11C6 (antibody, IgG1, V domains shown)
VH: QVQLQQSGAELVKPGASVKLSCKASGYTFTEYTIHWVKQRSGQGLEWIGWFYPGSGSIKYNEKFKDKATLTAVKSSSTVYMEFSRLTSEDSAVYFCARQDYDGLGFAYWGQGTLVTVSA
VL: B1 VL with C25S, S28T, R55K
notes: also called 1106
B4: anti-Siglec-5 monoclonal antibody 9B1 (antibody, IgG1, V domains shown)
VH: B3 VH with V73D, F83L, D100E, Y101E, D102G, L104I, A107D, L114T, V115L, A119S
VL: B1 VL with P12L, C25S, R55K, N58I
B5: anti-Siglec-5 monoclonal antibody 9A5 (antibody, IgG1, V domains shown)
VH: QVQLQQSGPELVEPGASVKVSCKASGYAFTSYNMYWVKQSHGKSLEWIGYIDPYNGGTYYDQKFKGRATLTVDKSSSTAHMHLNSLTSEDSAVYYCVFFYEYDGFPYWGQGTLVTVSA
VL: DIVLTQSPTLMSASPGEKVTMTCSASSSVSYMYWYQQKPRSSPKPLIYLTSNLASGVPARFSGSGSGTSYSLTISSMEAEDAATYYCQQWSSNPLTFGAGTKLELK
B6: anti-Siglec-5 monoclonal antibody 8A1 (antibody, IgG1, V domains shown)
VH: EIQLQQSGPELVKPGASVKVSCKASDYAFTSYNIYWVKQSHGKSLEWIGYIDPYNGGTSYNQTFKGKATLTVDKSSSTAYMHLNSLTSEDSAVYYCAMKVGYEAMDYWGQGTSVTVSS
VL: DIVMTQSQKFMSTSVGDRVSVTCKASQNVGTYVAWYQQKPGQSPKALIYSASYRYSGVPDRFTGSGSGTDFTLNISNVQSEDLAEYFCQQFNSYPYTFGGGTKLEIK
B7: anti-Siglec-5 monoclonal antibody 5H2 (antibody, IgG1, V domains shown)
VH: EVQLQQSGPELVKPGASVKVSCKASGYSFTDYNMYWVKQSHGKSLEWIGYIDPYNGGTSYNQKFKGKATLTVDKSSSTAFMLLNSLTSEDSAVYYCALYYDYDGIPYWGQGTLVTVSA
VL: B6 VL with Y32N, Q37R, S56N, N74T, F91Y
B8: anti-Siglec-5 monoclonal antibody 7A5 (antibody, IgG1, V domains shown)
VH: B7 VH with V2I, S59T, L82H, Y94F, L98F, D101G, D103Y, I105V
VL: B6 VL with T5I, G30D, Y32N, N74T, F91Y, Y94F, Y96L, G100S
B9: anti-Siglec-5 monoclonal antibody 10B6 (antibody, IgG1, V domains shown)
VH: B7 VH with V2I, W47C, I48F, T58P, S59Y, L82H, L98F, D101G, D103Y, I105V
VL: B6 VL with Q27H, Y32S, A46S, N74T, F91Y, Y96L, G100S
B10: anti-Siglec-5 monoclonal antibody 10F9 (antibody, IgG1, V domains shown)
VH: B7 VH with V2I, D31G, L45F, N55T, K63R, L82H, V93I, Y99F, I105F
VL: B6 VL with G30D, Y32N, N74T, F91Y
B11: anti-Siglec-5 monoclonal antibody 11H3 (antibody, IgG1, V domains shown)
VH: B6 VH with E1Q, I2V
VL: B6 VL with V3Q, Y32N

Residue numbers refer to the chain shown, from its start. No constants are given. Whether binding was seen depends on the method and setting. Some binding calls cover weakened binding; strength is not graded here. For some of these results: Tags and fused reporters may be left off the sequences shown.

The text below walks through data of patent publication US20210017275A1 (Alector, published 2021).

One experiment concerns the target T1, human Siglec-5 expressed on human primary cells (human) (UniProt O15389).
T1 sequence: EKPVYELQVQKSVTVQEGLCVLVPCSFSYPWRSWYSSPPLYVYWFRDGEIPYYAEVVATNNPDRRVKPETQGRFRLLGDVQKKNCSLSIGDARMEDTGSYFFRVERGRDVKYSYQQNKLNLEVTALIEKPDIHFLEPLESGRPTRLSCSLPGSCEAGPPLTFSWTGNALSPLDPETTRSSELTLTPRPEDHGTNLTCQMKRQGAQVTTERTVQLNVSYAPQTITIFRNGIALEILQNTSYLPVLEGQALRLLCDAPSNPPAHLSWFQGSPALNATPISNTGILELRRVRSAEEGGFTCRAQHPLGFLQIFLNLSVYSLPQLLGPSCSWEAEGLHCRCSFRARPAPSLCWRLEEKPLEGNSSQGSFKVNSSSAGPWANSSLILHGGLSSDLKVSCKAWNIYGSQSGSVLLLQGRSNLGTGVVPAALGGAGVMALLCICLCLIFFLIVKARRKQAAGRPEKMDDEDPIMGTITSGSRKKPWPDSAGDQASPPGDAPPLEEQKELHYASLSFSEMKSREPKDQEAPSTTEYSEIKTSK
Put plainly: flow cytometry on human primary neutrophils, 10 ug/ml mAb plus labelled secondary antibody. (A flow cytometer gives signals particle by particle.)
Take B1: the binding result is “binds”.

A further experiment addresses T1, human Siglec-5 expressed on human primary cells (human). As to the kind of experiment: flow cytometry on human primary monocytes, 10 ug/ml mAb plus labelled secondary antibody.
Consider B1, for which the binding result was “binds”.

A further experiment deals with T2, Histidine-tagged human Siglec-5 (NovoProtein) (human) (UniProt O15389).
T2 sequence: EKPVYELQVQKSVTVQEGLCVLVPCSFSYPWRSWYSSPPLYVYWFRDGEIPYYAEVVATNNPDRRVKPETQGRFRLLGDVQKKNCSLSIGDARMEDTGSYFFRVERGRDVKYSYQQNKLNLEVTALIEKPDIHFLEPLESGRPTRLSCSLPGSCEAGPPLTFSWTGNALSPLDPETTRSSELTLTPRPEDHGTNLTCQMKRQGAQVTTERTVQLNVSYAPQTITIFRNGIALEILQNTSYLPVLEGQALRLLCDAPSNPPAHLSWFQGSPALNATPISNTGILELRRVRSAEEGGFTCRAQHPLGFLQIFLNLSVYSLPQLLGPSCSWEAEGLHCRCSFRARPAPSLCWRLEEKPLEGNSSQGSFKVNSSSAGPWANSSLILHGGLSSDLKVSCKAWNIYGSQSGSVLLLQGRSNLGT
Put plainly: SPR (Biacore T200), antibody captured on anti-mouse IgG chip, 15 nM His-tagged human Siglec-5 flowed, 120 s association, 300 s dissociation [Cont.]. (In general: SPR reads the build-up and loss of mass on a sensor chip optically.)
For B1, the binding result is “binds”.

Another experiment has as its target T3, Human Siglec 5, Fc chimera (R&D Systems) (human) (UniProt O15389).
T3 sequence: T2 sequence
Put plainly: ELISA on plate-coated Siglec-5-Fc (1 ug/mL), antibody at 0.2 ug/ml, anti-mouse IgG-HRP, A450. In general terms: An ELISA detects its analyte on a solid surface through an enzyme-linked reagent.
In the case of B1, the binding entry is “binds”.

In a further experiment the target is T3, Human Siglec 5, Fc chimera (R&D Systems) (human). As to the kind of experiment: ELISA on plate-coated Siglec-5-Fc; antibody at 1, 0.2 and 0.04 ug/mL.
On to B1, for which the binding entry is “binds”.

The target in the next experiment is T4, recombinant Siglec-14-Fc (human) (UniProt Q08ET2).
T4 sequence: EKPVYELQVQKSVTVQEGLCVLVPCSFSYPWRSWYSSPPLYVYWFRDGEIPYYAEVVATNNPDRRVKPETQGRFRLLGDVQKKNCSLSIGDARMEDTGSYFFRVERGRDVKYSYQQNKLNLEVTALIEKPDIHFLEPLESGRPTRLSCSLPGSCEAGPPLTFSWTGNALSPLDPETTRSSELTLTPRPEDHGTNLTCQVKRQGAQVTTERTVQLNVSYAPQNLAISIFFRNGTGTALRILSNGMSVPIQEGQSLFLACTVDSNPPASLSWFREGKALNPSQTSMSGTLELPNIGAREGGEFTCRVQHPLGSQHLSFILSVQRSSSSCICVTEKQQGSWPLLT
Put plainly: ELISA on plate-coated Siglec-14-Fc (1 ug/mL), antibody at 0.2 ug/ml, anti-mouse IgG-HRP, A450.
As to B2, the binding entry was “binds”.

As to B3, the binding entry is “binds”.

With B1, the binding entry is given as “binds”.

For the molecule B4, the binding entry is recorded as “binds”.

Consider B5, for which the binding entry is listed as “binds”.

On to B6, for which the binding result is listed as “binds”.

For the molecule B7, the binding entry is on record as “binds”.

Take B8: the binding result is “binds”.

For B9, the binding result is on record as “binds”.

For B10, the binding entry is on record as “binds”.

For B11, the binding result is recorded as “binds”.

A further experiment addresses T4, recombinant Siglec-14-Fc (human). As to the kind of experiment: ELISA on plate-coated Siglec-14-Fc (1 ug/mL), antibody at 0.04 ug/ml, anti-mouse IgG-HRP, A450.
As for B2, the binding result was “binds”.

On to B3, for which the binding result was “binds”.

For B1, the binding entry is “binds”.

Regarding B4, the binding result is reported as “binds”.

With B5, the binding result is “binds”.

Take B6: the binding result is “binds”.

For B7, the binding result was “binds”.

As for B8, the binding result is “binds”.

In the case of B9, the binding entry is listed as “binds”.

As to B10, the binding entry was “binds”.

On to B11, for which the binding entry is on record as “binds”.

The target is the same in the next experiment. As to the kind of experiment: ELISA on plate-coated Siglec-14-Fc (1 ug/mL), antibody at 1 ug/ml, anti-mouse IgG-HRP, A450.
B2: the binding result is reported as “binds”.

Consider B3, for which the binding result is on record as “binds”.

As to B1, the binding entry is given as “binds”.

As for B4, the binding entry was “binds”.

In the case of B5, the binding result is on record as “binds”.

As for B6, the binding entry is “binds”.

On to B7, for which the binding result is given as “binds”.

With B8, the binding entry is on record as “binds”.

In the case of B9, the binding result is given as “binds”.

For B10, the binding result is reported as “binds”.

Turning to B11, the binding entry is recorded as “binds”.

For the next experiment the target is unchanged. Put plainly: ELISA on plate-coated Siglec-14-Fc; antibody at 1, 0.2 and 0.04 ug/mL.
B2: the binding entry is listed as “binds”.

On to B3, for which the binding result was “binds”.

In the case of B1, the binding result is “binds”.

Regarding B4, the binding result is reported as “binds”.

For the molecule B5, the binding entry was “binds”.

In the case of B6, the binding result was “binds”.

For the molecule B7, the binding entry is given as “binds”.

For B8, the binding result was “binds”.

Take B9: the binding entry is given as “binds”.

As to B10, the binding result is listed as “binds”.

Turning to B11, the binding entry is “binds”.

For a further experiment, the target named is T3, Human Siglec 5, Fc chimera (R&D Systems) (human). As to the kind of experiment: ELISA on plate-coated Siglec-5-Fc (1 ug/mL), antibody at 0.04 ug/ml, anti-mouse IgG-HRP, A450.
Regarding B1, the binding result is recorded as “binds”.

The target is the same in a further experiment. As to the kind of experiment: ELISA on plate-coated Siglec-5-Fc (1 ug/mL), antibody at 1 ug/ml, anti-mouse IgG-HRP, A450.
For B1, the binding result is “binds”.

The next experiment concerns the target T1, human Siglec-5 expressed on human primary cells (human). As to the kind of experiment: flow cytometry on human primary cells expressing Siglec-5.
As to B1, the binding entry is “binds”.
